Laboratory results from article PMC8705818, “Experimental Characterization of the Interaction between the N-Terminal SH3 Domain of Crkl and C3G” (International Journal of Molecular Sciences, 2021).
Results are given in words; binding and its absence hold for the method and conditions named. A result given as binding can be weak or reduced; the word gives no strength.

Assays:
[1] = biological target: N-SH3 domain of Crkl, D138A variant; assay: stopped-flow kinetics (FRET, Trp to dansyl); variants, ionic strength series: 0.5 µM dansyl peptide mixed with 2.0-4.5 µM N-SH3 variant; KD = koff/kon; 50 mM Hepes pH 7.5, 0 M NaCl, 10 °C; both purified
[2] = biological target: N-SH3 domain of Crkl, E140A variant; assay: as above
[3] = biological target: N-terminal SH3 domain of Crkl, wild type; assay: stopped-flow kinetics (FRET, Trp to dansyl); ionic strength series: 0.5 µM dansyl peptide mixed with 1-5 µM N-SH3; koff from displacement with excess nondansylated peptide; KD = koff/kon; Hepes 50 mM pH 7.0, 0 M NaCl, 10 °C; both purified
[4] = biological target: N-SH3 domain of Crkl, D141A variant; assay: stopped-flow displacement kinetics; preincubated complex of D141A N-SH3 (2 µM) and dansyl-C3G (10 µM) mixed with excess nondansylated C3G (50 µM); Hepes 50 mM pH 7.0 with 20% w/v sucrose; both purified

Measured: binding

VVDNSPPPALPPKKRQSAPS [nondansylated C3G_(277–296) peptide]
binds: all assays above
